Results taken from PubChem BioAssay AID652054 (National Center for Advancing Translational Sciences (NCATS), 2013).
Among all 360,000 compounds or so, about 9,100 (2.5%) were called active. Inconclusive results, whose numbers are uncertain, are shown with a selection of clear calls. Rule as the data show it: active = max response below about -50%; inconclusive = no clear call, values can overlap the other calls; inactive = above that.

Amino acid sequences for entries named in this document (tags omitted).
UniProt P35462, whole entry, looked up: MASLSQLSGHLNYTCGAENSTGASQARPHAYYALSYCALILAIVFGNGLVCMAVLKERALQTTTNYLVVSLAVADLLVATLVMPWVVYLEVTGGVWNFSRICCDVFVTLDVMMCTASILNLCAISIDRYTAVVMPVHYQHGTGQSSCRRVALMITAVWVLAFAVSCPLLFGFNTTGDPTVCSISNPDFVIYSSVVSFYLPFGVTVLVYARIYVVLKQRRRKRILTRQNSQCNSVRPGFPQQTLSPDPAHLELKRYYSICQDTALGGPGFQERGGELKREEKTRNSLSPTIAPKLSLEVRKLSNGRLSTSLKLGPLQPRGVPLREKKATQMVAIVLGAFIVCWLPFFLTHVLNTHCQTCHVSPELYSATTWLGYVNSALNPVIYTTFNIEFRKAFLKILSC

What follows are molecules tested against D(3) dopamine receptor (Homo sapiens) (UniProt P35462) (assay: qHTS of D3 Dopamine Receptor Antagonist: qHTS). Details: D3R cells, DiscoveRx beta-arrestin luminescence, antagonist mode; stronger effect = lower value.
How it was run: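 Cells plated overnight at 1500 cells/well, then exposed to library compounds with dopamine controls for 90 minutes at 37 degrees C. DiscoveRx reagent added for 30–60 minutes at room temperature; luminescence read, quantitative HTS format.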
% is scaled to controls: 0 for no effect and ±100 for the full control effect.

Row | SMILES | max response, negative = inhibition
1 | O=C(Cn1c(C(=O)NCCCN2CCOCC2)cc2sccc21)c1ccccc1 | inconclusive: -40.8%
2 | CCC(C)(C)n1nnnc1C(C(C)C)N(CCCO)Cc1cc2cc(C)ccc2[nH]c1=O (stereo unspecified) | inconclusive: -37.3%
3 | CCC(c1nnnn1C1CCCC1)N1CCN(Cc2ccccc2)CC1 (stereo unspecified) | active: -65.2%
4 | CCOC(=O)N1CCN(C(=O)C2CCN(Cc3nc(-c4ccccc4C)oc3C)CC2)CC1 | inconclusive: -42.8%
5 | CC(NC(=O)CCNC(=O)c1ccco1)c1ccccc1 (stereo unspecified) | inactive: 18.6%
6 | CC(C)NC(=O)c1ccc2sc([C@@H]3O[C@H](CO)[C@H](O)[C@H](O)[C@H]3O)nc2c1 | inactive: -7.27%
7 | CN(C)CCN(Cc1ccccc1)c1nccc(N(C)C)c1C#N | inconclusive: -31.2%
8 | COCCNC(=O)C1CCCN(Cc2cccc(C(F)(F)F)c2)CC1 (stereo unspecified) | inconclusive: -31.9%
9 | O=[N+]([O-])c1cccc(COc2ccc(CN3CCCC3)cc2)c1 | inconclusive: -44.7%
10 | COCCCN1C(=O)C(CC(=O)NC(c2ccccc2)c2ccccc2)CC(C(=O)N2CCOCC2)=C1C (stereo unspecified) | inconclusive: -31.2%
11 | CCCOCc1ccc(O)c2ncccc12 | active: -71.3%
12 | Cc1ccccc1Nc1cc(C(=O)NCc2ccco2)c2ccccc2n1 | inactive: -10.7%
13 | O=C(CCN1CCN(c2ccccc2)CC1)Nc1ccc2c(c1)OCO2 | inconclusive: -47.8%
14 | O=C(NNC(=O)c1ccc2ccccc2c1)c1ccc(Cl)cc1 | inconclusive: -42.4%
15 | COc1ccc(N2CCN(c3ccc([N+](=O)[O-])cc3Cl)CC2)cc1 | inconclusive: -32.8%
16 | C/C(=N\NC(=O)c1c([N+](=O)[O-])c(C)nn1C)c1ccc(NC(=O)C2CCCC2)cc1 | inconclusive: -40.9%
17 | C[C@@H](C(=O)NC1CCCCC1)N1C(=O)N2CCc3c([nH]c4ccccc34)[C@@]2(C)C1=O | inconclusive: -41.4%
18 | Cc1ccc([N+](=O)[O-])cc1NC(=O)CN(C)CCOc1ccccc1 | inconclusive: -47.5%
19 | OCCNCC(O)Cn1ccc2ccccc21 (stereo unspecified) | active: -51.9%
20 | S=c1[nH]nc(-c2cccc(Br)c2)o1 | inactive: 9.27%
21 | C[C@H](O)CNC(=O)c1[nH]cnc1C(=O)Nc1cccc(Cl)c1 | inconclusive: -30.9%
22 | CN1CCN(S(=O)(=O)c2ccc(C(=O)NC3CCCCC3)cc2)CC1 | inconclusive: -38.3%

Row | SMILES | max response, negative = inhibition
23 | O=C(O)c1ccc(CN2C(=O)c3cccc4c([N+](=O)[O-])ccc(c34)C2=O)cc1 | inactive: -29.4%
24 | CC(C)[C@H](NC(=O)c1ccccc1)C(=O)OCC(=O)c1ccc2c(c1)NC(=O)CO2 | inactive: -17.1%
25 | Cc1cccc(OCc2nnc(NC(=O)Cc3cccs3)s2)c1 | inconclusive: -41.4%
26 | COc1ccc(OC)c(NC2=NC3(CCCC3)N=C(N)N2)c1 | active: -57.6%
27 | CC1=C(C(=O)OC(C)C)C(c2cccnc2)n2ncnc2N1 (stereo unspecified) | inactive: 9.18%
28 | CC(=O)Nc1cccc(NC(=O)c2cc3ccccc3o2)c1 | inactive: 30.3%
29 | CC(Nc1ccccc1)C(=O)Nc1ccc(F)cc1 (stereo unspecified) | inconclusive: -35.2%
30 | COC(=O)c1ccc(COC(=O)c2[nH]c(C)c(C(C)=O)c2C)o1 | inactive: 0%
31 | Cc1ccc(NC2=C(N3CCOCC3)C(=O)c3ccccc3C2=O)cc1 | inactive: -25.9%
32 | Cc1ccc2c(CN3CCN(CCO)CC3)cc(=O)oc2c1 | inconclusive: -49.6%
33 | Cc1ccc(-c2nn(C)c(=O)c3ccccc23)cc1S(=O)(=O)NCCO | inconclusive: -33.9%
34 | O=[N+]([O-])c1ccc(S(=O)(=O)Nc2ccncc2)cc1 | inactive: 6.35%
35 | O=C(COc1ccc(Cl)cc1Cl)NC(=S)N1CCCc2ccccc21 | inconclusive: -30.3%
36 | O=C(Nc1ccccn1)c1cc(-c2ccc(Cl)s2)nc2ccccc12 | inactive: 40.1%
37 | Nc1c(S(=O)(=O)c2ccccc2)nnn1-c1ccccc1 | inactive: 1.52%
38 | Cc1ccccc1NC(=S)NC(=O)c1cc(-c2ccccc2)nc2ccccc12 | inactive: 0%
39 | Cc1cccc(N2CCN(CC(O)COc3ccc4ccccc4c3)CC2)c1 (stereo unspecified) | inconclusive: -30.7%
40 | S=C1SCN(Cc2cccs2)CN1Cc1cccs1 | inactive: -16.1%
41 | Cc1oc2c(C)c3oc(=O)c(CCC(=O)N4C[C@H]5C[C@@H](C4)c4cccc(=O)n4C5)c(C)c3cc2c1C | inactive: 7.73%
42 | CCOC(=O)C1(C)CCCN(C(=O)c2ccccc2)C1 (stereo unspecified) | active: -60.8%
43 | COc1cc(OC)cc(C(=O)N[C@H](C(=O)Nc2ccc3c(c2)OCO3)C(C)C)c1 | inactive: -4.59%
44 | COc1cc(C(=O)Nc2cccc3ncccc23)cc(OC)c1OC | inconclusive: -44.7%

Row | SMILES | max response, negative = inhibition
45 | CCCc1nc2oc3c(NCC4CCCO4)ncnc3c2c2c1COC(C)(C)C2 (stereo unspecified) | inactive: -5.57%
46 | Cc1ccc([C@H]2C[C@H](O)[C@@H](n3cc(-c4ccc(F)cc4)nn3)CN2C(=O)c2cccs2)cc1 | inconclusive: -36.2%
47 | N#Cc1ccccc1OCCN1C(=O)c2ccccc2C1=O | inconclusive: -41%
48 | O=[N+]([O-])c1ccc(CN2CC(N3CCCC3)CS2(=O)=O)cc1 (stereo unspecified) | inactive: 3.28%
49 | COCCn1c(C)cc(C2=NNC(=Nc3ccccc3)SC2)c1C | active: -58.2%
50 | COc1cc(/C=C2\SC(=Nc3ccccc3)N(CCc3c[nH]c4ccccc34)C2=O)ccc1OC(C)C(=O)O (stereo unspecified) | inactive: 5.98%
51 | CCC(CC)COC(=O)C1=C(C)NC(=O)NC1c1ccccc1Br (stereo unspecified) | inactive: -10.8%
52 | CC(=O)c1c(C)[nH]c(-c2ccccc2)nc1=S | inconclusive: -35.8%
53 | CCc1cc2c(=O)[nH]c(-c3ccccn3)nc2s1 | active: -68.3%
54 | CCNC(=S)N(CCc1c(C)[nH]c2ccc(C)cc12)Cc1cc(OC)c(OC)c(OC)c1 | inconclusive: -30.9%
55 | O=C1C(Cl)=C(NS(=O)(=O)c2ccc([N+](=O)[O-])cc2)C(=O)c2ccccc21 | inconclusive: -40.3%
56 | CCN1CCN(C(c2ccc(C(F)(F)F)cc2)c2ccc3cccnc3c2O)CC1 (stereo unspecified) | inconclusive: -40%
57 | O=C(CSc1nnc(C23CC4CC(CC(C4)C2)C3)o1)Nc1ccc(N2CCOCC2)c(Cl)c1 | inconclusive: -32.4%
58 | CCOc1ccc(NC(=S)/C(=C(\[O-])c2ccc(C)c([N+](=O)[O-])c2)[n+]2ccccc2)cc1 | inactive: 1.68%
59 | CCOC(=O)CCSc1n[nH]c(=S)s1 | inconclusive: -38.2%
60 | Cc1ccc(OCCCCCCN2CCNCC2)c(Br)c1 | inactive: -4.48%
61 | O=C(NC(=S)Nc1ccc(C(=O)N2CCOCC2)cc1)c1ccc([N+](=O)[O-])cc1 | inconclusive: -35.7%
62 | O=C(c1ccc(Cn2c(=O)[nH]c3ccccc3c2=O)cc1)N1CCN(c2ccc(F)cc2)CC1 | inactive: 13.8%
63 | O=C(NC(=S)NCc1ccccc1)c1cccs1 | inconclusive: -48.1%
64 | COCCCNC(=S)NC1CC2CCC(C1)N2Cc1ccccc1 (stereo unspecified) | active: -59.6%
65 | Cc1cc(NC(=O)CCC(=O)N(CC2CCCO2)C(C(=O)NC2CCCC2)c2ccccc2C)no1 (stereo unspecified) | inconclusive: -37.6%
66 | CN(C)c1ccc(/C=N\NC(=O)c2ccc(Cn3cc(Cl)cn3)cc2)cc1 | inconclusive: -35.3%

Row | SMILES | max response, negative = inhibition
67 | CC1CCN(CCn2c(=S)[nH]c3ccccc3c2=O)CC1 | inconclusive: -47.9%
68 | O=C(O)CC(CC(=O)O)(C(=O)O)c1ccccc1 | inactive: 1.69%
69 | CC1CCC(NS(=O)(=O)c2ccc(Cl)s2)CC1 (stereo unspecified) | inactive: -0.894%
70 | Cc1ccc(-n2nc3c(N4CCC(C(=O)NCCc5cccs5)CC4)nnc(C)c3c2C)cc1 | inconclusive: -35.2%
71 | CN1CCN(S(=O)(=O)c2ccc(NC(=O)c3csc4ccccc34)cc2)CC1 | inconclusive: -31.7%
72 | Cc1ccccc1-c1nc2sc3c(c2c(=O)n1N)CCCC3 | inactive: 1.33%
73 | COc1ccc(C(NC(=O)C2CCN(CCOc3ccccc3)CC2)c2ccccn2)cc1 (stereo unspecified) | inconclusive: -46.6%
74 | Cc1ccc(-c2nc(CSCC(=O)NC3CCN(Cc4ccccc4)CC3)c(C)o2)cc1 | active: -76.3%
75 | COc1ccccc1C(NC(=O)C1CCN(CCOc2ccc(Cl)cc2Cl)CC1)c1ccccn1 (stereo unspecified) | inconclusive: -47.1%
76 | COc1ccccc1NC(=O)N(Cc1ccco1)Cc1cc2cccc(C)c2[nH]c1=O | inconclusive: -44%
77 | O=C(c1ccco1)N(Cc1ccc([N+](=O)[O-])cc1)c1ccc(Br)cc1 | inactive: 1.01%
78 | CCCCCN(C(=O)CCC(=O)OCC(=O)c1ccc(CCC)cc1)c1c(N)n(CCCC)c(=O)[nH]c1=O | inconclusive: -33.3%
79 | COc1ccc(C(=O)/C(C#N)=N/Nc2ccc([N+](=O)[O-])cc2)cc1 | inconclusive: -49.2%
80 | COc1ccc(C(=O)NNC(=O)c2ccc3ccccc3c2O)cc1 | inactive: 4.29%
81 | COC(=O)/C=C\C(C#N)(C#N)N=Cc1ccc(OC)cc1 | inconclusive: -49.3%
82 | CC(C)=CCC[C@H](C)C[C@@H]1Cc2[nH][nH]c(=O)c2[C@H](c2ccc(F)cc2)O1 | inconclusive: -40.8%
83 | COc1ccc([C@H]2N[C@]3(CCCN(Cc4ccc(C)cc4)C3=O)[C@H]3C(=O)N(C)C(=O)[C@@H]23)cc1 | inconclusive: -40.6%
84 | Brc1ccc(C2=Nn3c(nnc3-c3cccnc3)SC2)s1 | inconclusive: -44.4%
85 | Cc1ccc(C(=O)c2cc([N+](=O)[O-])ccc2N2CCCCC2)cc1C | inactive: -18.9%
86 | Cc1ccc(NC(=O)CN(C)S(=O)(=O)c2ccc3c(c2)n(C)c(=O)c(=O)n3C)c(C)c1 | inactive: 15.2%

Among those listed so far, these have fluorine:
Row | SMILES | max response, negative = inhibition
8 | COCCNC(=O)C1CCCN(Cc2cccc(C(F)(F)F)c2)CC1 (stereo unspecified) | inconclusive: -31.9%
29 | CC(Nc1ccccc1)C(=O)Nc1ccc(F)cc1 (stereo unspecified) | inconclusive: -35.2%
46 | Cc1ccc([C@H]2C[C@H](O)[C@@H](n3cc(-c4ccc(F)cc4)nn3)CN2C(=O)c2cccs2)cc1 | inconclusive: -36.2%
56 | CCN1CCN(C(c2ccc(C(F)(F)F)cc2)c2ccc3cccnc3c2O)CC1 (stereo unspecified) | inconclusive: -40%
62 | O=C(c1ccc(Cn2c(=O)[nH]c3ccccc3c2=O)cc1)N1CCN(c2ccc(F)cc2)CC1 | inactive: 13.8%
82 | CC(C)=CCC[C@H](C)C[C@@H]1Cc2[nH][nH]c(=O)c2[C@H](c2ccc(F)cc2)O1 | inconclusive: -40.8%
